PubChem BioAssay AID686937, Drosophila RNAi Screening Center – 2013

Screen: 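Genes in the fly needed for secretion of protein constitutively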 (primary screen)
Cell system: Drosophila S2 cells expressing secreted horseradish peroxidase
Reagents: long dsRNA against Drosophila genes
Duration: about 5.5 days (5 days dsRNA, then 12 h reporter induction)
Conditions: reporter expression induced after 5 days of dsRNA, read 12 h later; inducer not stated
Read-out: 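Chemiluminescent measurement of peroxidase in the medium 12 h after reporter induction, following 5 days of dsRNA, given as a z-score per plate; higher means more secretion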
Reading the numbers: z-score: higher = more reporter secreted into medium
The deposit covers about 23,000 reagents; this is an unselected part of those with a known target gene and a result. 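Reduced-secretion tags in replicate 1 do not always agree with the z-scores; no criterion for assigning the tags was given.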 A plus sign joins genes that one reagent is predicted to hit. Further read-outs or replicates are left out here. The record does not give: the amount of reagent.

{"target gene":"Ack (Activated Cdc42 kinase)","DRSC id":"DRSC08135","z-score, replicate 1":0.29}
{"target gene":"INPP5E (Inositol polyphosphate 5-phosphatase E)","DRSC id":"DRSC09723","z-score, replicate 1":0.26}
{"target gene":"CG9961","DRSC id":"DRSC00738","z-score, replicate 1":-0.08}
{"target gene":"Gr66a (Gustatory receptor 66a)","DRSC id":"DRSC10783","z-score, replicate 1":0.42}
{"target gene":"CG6293","DRSC id":"DRSC16011","z-score, replicate 1":0.38}
{"target gene":"stj (straightjacket)","DRSC id":"DRSC06124","z-score, replicate 1":0.32}
{"target gene":"CG15312","DRSC id":"DRSC18000","z-score, replicate 1":0.19}
{"target gene":"CG31093","DRSC id":"DRSC15689","z-score, replicate 1":0.17}
{"target gene":"CG30340","DRSC id":"DRSC05167","z-score, replicate 1":-0.26}
{"target gene":"RFeSP (Rieske iron-sulfur protein)","DRSC id":"DRSC00702","z-score, replicate 1":-0.15}
{"target gene":"CG42715 (retired record)","DRSC id":"DRSC05499","z-score, replicate 1":-0.3}
{"target gene":"CG6244","DRSC id":"DRSC10609","z-score, replicate 1":0.47}
{"target gene":"T3dh + pgc","DRSC id":"DRSC04659","z-score, replicate 1":0.42}
{"target gene":"norpA (no receptor potential A)","DRSC id":"DRSC18806","z-score, replicate 1":0.02}
{"target gene":"Gem4b + Gem4c + Glos","DRSC id":"DRSC18244","z-score, replicate 1":0.44}
{"target gene":"CG6508","DRSC id":"DRSC02963","z-score, replicate 1":-0.04}
{"target gene":"ND-MWFE (NADH dehydrogenase (ubiquinone) MWFE subunit)","DRSC id":"DRSC06364","z-score, replicate 1":0.11}
{"target gene":"AspRS-m (Aspartyl-tRNA synthetase, mitochondrial)","DRSC id":"DRSC02646","z-score, replicate 1":0.27}
{"target gene":"CR40282 (pseudo)","DRSC id":"DRSC07814","z-score, replicate 1":0.13}
{"target gene":"SoxN (SoxNeuro)","DRSC id":"DRSC03440","z-score, replicate 1":-0.12}
{"target gene":"SoxN (SoxNeuro)","DRSC id":"DRSC21779","z-score, replicate 1":0.12}
{"target gene":"lbm (late bloomer)","DRSC id":"DRSC07643","z-score, replicate 1":0.28}
{"target gene":"nmdyn-D6","DRSC id":"DRSC20355","z-score, replicate 1":0.35}
{"target gene":"CG7227","DRSC id":"DRSC03032","z-score, replicate 1":0.17}
{"target gene":"CG6592","DRSC id":"DRSC10669","z-score, replicate 1":0.03}
{"target gene":"CG1360","DRSC id":"DRSC06406","z-score, replicate 1":0.27}
{"target gene":"Rnf146 (Ring finger protein 146)","DRSC id":"DRSC11045","z-score, replicate 1":0.46}
{"target gene":"dlt (discs lost)","DRSC id":"DRSC08705","z-score, replicate 1":0.2}
{"target gene":"Shab (Shaker cognate b)","DRSC id":"DRSC08013","z-score, replicate 1":0.01}
{"target gene":"Shab (Shaker cognate b)","DRSC id":"DRSC08643","z-score, replicate 1":0.33}
{"target gene":"Shab (Shaker cognate b)","DRSC id":"DRSC08699","z-score, replicate 1":-0.29}
{"target gene":"CG31157","DRSC id":"DRSC21832","z-score, replicate 1":0.36}
{"target gene":"NimA (Nimrod A)","DRSC id":"DRSC01353","z-score, replicate 1":-0.37}
{"target gene":"NimA (Nimrod A)","DRSC id":"DRSC22170","z-score, replicate 1":-0.33}
{"target gene":"eIF3d2 (eukaryotic translation initiation factor 3 subunit d2)","DRSC id":"DRSC15651","z-score, replicate 1":0.27}
{"target gene":"Mal-B2 (Maltase B2)","DRSC id":"DRSC02417","z-score, replicate 1":0.76}
{"target gene":"CG6277","DRSC id":"DRSC16008","z-score, replicate 1":0.2}
{"target gene":"CG9632","DRSC id":"DRSC16528","z-score, replicate 1":-0.13}
{"target gene":"nompB (no mechanoreceptor potential B)","DRSC id":"DRSC03701","z-score, replicate 1":0.1}
{"target gene":"nompB (no mechanoreceptor potential B)","DRSC id":"DRSC03731","z-score, replicate 1":0.1}
{"target gene":"CG1077","DRSC id":"DRSC12146","z-score, replicate 1":0.29}
{"target gene":"ACC (Acetyl-CoA carboxylase)","DRSC id":"DRSC06059","z-score, replicate 1":-6.05,"phenotype, replicate 1":"reduced secretion"}
{"target gene":"ACC (Acetyl-CoA carboxylase)","DRSC id":"DRSC07249","z-score, replicate 1":-5.31,"phenotype, replicate 1":"reduced secretion"}
{"target gene":"CG15923","DRSC id":"DRSC15129","z-score, replicate 1":0.32}
{"target gene":"CG12862","DRSC id":"DRSC06202","z-score, replicate 1":0.26}
{"target gene":"Rpt5 (Regulatory particle triple-A ATPase 5)","DRSC id":"DRSC16842","z-score, replicate 1":-5.32,"phenotype, replicate 1":"reduced secretion"}
{"target gene":"Adh + Adhr","DRSC id":"DRSC01862","z-score, replicate 1":0.41}
{"target gene":"Adh + Adhr","DRSC id":"DRSC01863","z-score, replicate 1":0.27}
{"target gene":"ATPsynGL (ATP synthase, subunit G-like)","DRSC id":"DRSC03027","z-score, replicate 1":0.41}
{"target gene":"lncRNA:CR34047 (long non-coding RNA:CR34047)","DRSC id":"DRSC07857","z-score, replicate 1":0.07}
{"target gene":"lncRNA:CR34047 (long non-coding RNA:CR34047)","DRSC id":"DRSC21689","z-score, replicate 1":0.16}
